# Source: publication PMC9455175
# Sequences of proteins named here, by UniProt entry; tags and fusion partners are left off.
# UniProt Q6PDQ2: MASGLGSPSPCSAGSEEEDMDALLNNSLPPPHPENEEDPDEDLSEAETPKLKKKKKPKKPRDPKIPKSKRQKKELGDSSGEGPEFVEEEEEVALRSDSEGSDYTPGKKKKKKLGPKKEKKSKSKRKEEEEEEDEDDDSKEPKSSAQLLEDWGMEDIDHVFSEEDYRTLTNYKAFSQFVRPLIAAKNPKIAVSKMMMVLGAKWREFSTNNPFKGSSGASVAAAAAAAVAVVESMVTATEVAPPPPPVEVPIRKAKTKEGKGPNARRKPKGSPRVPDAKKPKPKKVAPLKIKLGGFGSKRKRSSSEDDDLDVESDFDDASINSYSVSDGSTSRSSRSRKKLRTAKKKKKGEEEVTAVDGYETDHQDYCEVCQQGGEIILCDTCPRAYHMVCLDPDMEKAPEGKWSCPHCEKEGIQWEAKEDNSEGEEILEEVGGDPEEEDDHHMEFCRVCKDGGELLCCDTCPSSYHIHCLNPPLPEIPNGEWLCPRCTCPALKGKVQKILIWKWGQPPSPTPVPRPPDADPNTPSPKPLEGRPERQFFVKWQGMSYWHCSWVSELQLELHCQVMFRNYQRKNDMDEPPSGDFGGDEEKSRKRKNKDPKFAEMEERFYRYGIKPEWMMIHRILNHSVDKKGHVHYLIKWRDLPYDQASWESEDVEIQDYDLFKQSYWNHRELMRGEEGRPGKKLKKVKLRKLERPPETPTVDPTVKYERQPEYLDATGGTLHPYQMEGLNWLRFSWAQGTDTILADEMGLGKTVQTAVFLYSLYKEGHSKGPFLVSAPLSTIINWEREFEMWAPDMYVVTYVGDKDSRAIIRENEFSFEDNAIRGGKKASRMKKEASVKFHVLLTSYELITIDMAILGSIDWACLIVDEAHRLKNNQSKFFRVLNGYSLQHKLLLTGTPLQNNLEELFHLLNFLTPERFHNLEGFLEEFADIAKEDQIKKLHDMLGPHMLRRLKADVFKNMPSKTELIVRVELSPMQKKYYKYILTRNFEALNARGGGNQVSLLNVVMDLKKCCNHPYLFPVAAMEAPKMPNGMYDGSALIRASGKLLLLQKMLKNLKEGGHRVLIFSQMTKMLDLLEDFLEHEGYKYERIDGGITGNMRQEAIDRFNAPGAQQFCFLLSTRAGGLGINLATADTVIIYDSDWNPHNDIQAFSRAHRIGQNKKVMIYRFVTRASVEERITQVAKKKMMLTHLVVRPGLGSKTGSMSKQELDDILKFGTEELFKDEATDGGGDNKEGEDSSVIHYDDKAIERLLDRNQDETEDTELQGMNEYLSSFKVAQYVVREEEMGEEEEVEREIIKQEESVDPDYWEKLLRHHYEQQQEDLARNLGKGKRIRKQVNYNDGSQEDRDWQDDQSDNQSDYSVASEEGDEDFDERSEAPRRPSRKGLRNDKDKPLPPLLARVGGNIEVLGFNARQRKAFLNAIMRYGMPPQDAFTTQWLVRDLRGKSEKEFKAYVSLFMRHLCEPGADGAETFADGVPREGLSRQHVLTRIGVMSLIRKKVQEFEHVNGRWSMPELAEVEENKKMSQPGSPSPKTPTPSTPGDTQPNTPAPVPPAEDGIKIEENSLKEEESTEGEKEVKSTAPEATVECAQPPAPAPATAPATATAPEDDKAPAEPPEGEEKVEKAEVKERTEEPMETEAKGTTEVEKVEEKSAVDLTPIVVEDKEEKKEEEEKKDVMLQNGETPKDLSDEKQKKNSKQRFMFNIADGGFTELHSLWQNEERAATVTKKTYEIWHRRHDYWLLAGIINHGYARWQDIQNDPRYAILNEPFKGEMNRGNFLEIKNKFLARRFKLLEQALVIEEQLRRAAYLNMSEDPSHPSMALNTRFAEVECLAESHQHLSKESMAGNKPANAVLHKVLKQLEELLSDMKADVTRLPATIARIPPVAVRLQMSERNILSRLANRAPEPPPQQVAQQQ
# These are yes or no findings as the source states them, for the method shown. Binding seen in cells or lysates may run through a third protein. Some entries that bind do so weakly or less than the wild type. For some assays here: Tags and fused reporters may be left off the sequences shown.
# B1: Znf219 (protein, UniProt Q6IQX8 1-726)
# chain: MEGSRPRILVGHLEPSPPAFDGELDLQRYSNGPGVSGTPGPGSPGMGAVGWSETRAGERRFPCPVCGKRFRFNSILALHLRAHPGAQAFQCPHCGHRAAQRALLRSHLRTHQPERPRSPAARLLLELEERALLREARLGRARSSGGMQSSPAAEGLARPQVPSSSAFRCPFCKGKFRTSAERERHLHILHRPWKCSLCSFGSSQEEELLHHSLTAHGASERPLAATSTPEPPPPPQQEPRSALEPEPEPEPRPEPDREANPAPTPAPPEEPPAPPEFRCQVCGQSFTQSWFLKGHMRKHKASFDHACPVCGRCFKEPWFLKNHMKVHTSKLGPLRAPGPGSAPARAPQPPDLSLLAYEPLGPALLLAPAPAPAERREPPSLLGYLSVRAGEVRPNGEGADPGGGRSYGGFRPLPSALPNRARRHRTEEPEEEEEVVEAEEESWARGRSLGSLTSLHPNPGEGSGQPAPAAGTQARSTATQEENGLLVGGTRSEAGRGATGKDCPFCGKSFRSAHHLKVHLRVHTGERPYKCPHCDYAGTQSGSLKYHLQRHHREQRSSAGPGPPPEPPPPSQRGSLQPQSGAKPTQASATWVEGTASTRPPSSSTGPGSRRKPASPGRTLRNGRGGEAEPLDLSLRAGPGGEAGAGGALHRCLFCPFATGAPELMALHLQVHHSRRARGRRQPRADTSPTYVRAPSGETPPSPPLEEEGSPGLSRSGEAGLGGQER
# B2: Myc-Znf219 (protein, UniProt Q6IQX8 1-726)
# chain: B1 chain
# What was measured:
# [1] = target: Chd4 (chromatin helicase DNA binding protein 4) (mouse (endogenous in heart)) (UniProt Q6PDQ2); assay: co-IP; anti-Chd4 immunoprecipitation from WT and Chd4corin cardiac nuclear extracts, Western blot for Znf219
# [2] = target: Flag-Chd4 (UniProt Q6PDQ2); assay: co-IP; cells co-transfected with Flag-Chd4 and Myc-Znf219 plasmids (Figure S1); which protein was precipitated is not told in the text shown
Binder,binding [1],binding [2]
B1,binds,–
B2,–,binds
